Laboratory results as given in patent US20110224079A1, “SPIROHETEROCYCLIC N-OXYAMIDES AS PESTICIDES” (SYNGENTA CROP PROTECTION LLC, priority 2008, published 2011).
Some of these results come from one statement about several compounds together.

system: cowpea aphid (Aphis craccivora); experiment: Example B14: insecticide seed treatment of sugarbeet seeds, infestation with cowpea aphid; assay type: in vivo; conditions: 0.3 mg a.i./seed, infested after 14 days, counted 7 days later
Protocol: Insecticide Seed Treatment
Sugarbeet seeds are treated with test compounds at various rates (mg a.i./seed). The seeds are sown into pots filled with soil. After placing the seeds on the soil surface they are further covered with soil. Before and during the bioassays, the plants are grown under optimal greenhouse conditions. After 14 days, the plants are infested with cowpea aphid (Aphis craccivora) by placing one infested pea seedling containing approximately 150 aphids of a population of mixed developmental stages onto each plant. Seven days after infestation, the number of aphids is counted per plant. Each treatment group is replicated 10 times. Each replicate contains 1 plant.

Structure (SMILES)	efficacy in the reduction of aphids compared to the untreated control plants
CCOC(=O)OC1=C(c2cc(C)ccc2C)C(=O)N(OCOC)C12CCN(OC)CC2 [P1.2, Carbonic acid 3-(2,5-dimethyl-phenyl)-8-methoxy-1-methoxy-methoxy-2-oxo-1,8-diaza-spiro[4.5]dec-3-en-4-yl ester ethyl ester]	over 80%
CCOC(=O)OC1=C(c2c(C)cc(C)cc2C)C(=O)N(OCOC)C12CCN(OC)CC2 [P1.7, carbonic acid ethyl ester 8-methoxy-1-methoxymethoxy-2-oxo-3-(2,4,6-trimethyl-phenyl)-1,8-diaza-spiro[4.5]dec-3-en-4-yl ester]	over 80%
COCON1C(=O)C(c2c(C)cc(C)cc2C)=C(O)C12CCN(OC)CC2 [P2.6, 4-hydroxy-8-methoxy-1-methoxymethoxy-3-(2,4,6-trimethyl-phenyl)-1,8-diaza-spiro[4.5]dec-3-en-2-one]	over 80%
